# Data as given in PubChem BioAssay (EPA / NIEHS).
# Amino acid sequences for entries named in this document (tags omitted). A change or cut given only in a name is not applied to a line headed by its entry.
# UniProt P10586, whole entry, looked up: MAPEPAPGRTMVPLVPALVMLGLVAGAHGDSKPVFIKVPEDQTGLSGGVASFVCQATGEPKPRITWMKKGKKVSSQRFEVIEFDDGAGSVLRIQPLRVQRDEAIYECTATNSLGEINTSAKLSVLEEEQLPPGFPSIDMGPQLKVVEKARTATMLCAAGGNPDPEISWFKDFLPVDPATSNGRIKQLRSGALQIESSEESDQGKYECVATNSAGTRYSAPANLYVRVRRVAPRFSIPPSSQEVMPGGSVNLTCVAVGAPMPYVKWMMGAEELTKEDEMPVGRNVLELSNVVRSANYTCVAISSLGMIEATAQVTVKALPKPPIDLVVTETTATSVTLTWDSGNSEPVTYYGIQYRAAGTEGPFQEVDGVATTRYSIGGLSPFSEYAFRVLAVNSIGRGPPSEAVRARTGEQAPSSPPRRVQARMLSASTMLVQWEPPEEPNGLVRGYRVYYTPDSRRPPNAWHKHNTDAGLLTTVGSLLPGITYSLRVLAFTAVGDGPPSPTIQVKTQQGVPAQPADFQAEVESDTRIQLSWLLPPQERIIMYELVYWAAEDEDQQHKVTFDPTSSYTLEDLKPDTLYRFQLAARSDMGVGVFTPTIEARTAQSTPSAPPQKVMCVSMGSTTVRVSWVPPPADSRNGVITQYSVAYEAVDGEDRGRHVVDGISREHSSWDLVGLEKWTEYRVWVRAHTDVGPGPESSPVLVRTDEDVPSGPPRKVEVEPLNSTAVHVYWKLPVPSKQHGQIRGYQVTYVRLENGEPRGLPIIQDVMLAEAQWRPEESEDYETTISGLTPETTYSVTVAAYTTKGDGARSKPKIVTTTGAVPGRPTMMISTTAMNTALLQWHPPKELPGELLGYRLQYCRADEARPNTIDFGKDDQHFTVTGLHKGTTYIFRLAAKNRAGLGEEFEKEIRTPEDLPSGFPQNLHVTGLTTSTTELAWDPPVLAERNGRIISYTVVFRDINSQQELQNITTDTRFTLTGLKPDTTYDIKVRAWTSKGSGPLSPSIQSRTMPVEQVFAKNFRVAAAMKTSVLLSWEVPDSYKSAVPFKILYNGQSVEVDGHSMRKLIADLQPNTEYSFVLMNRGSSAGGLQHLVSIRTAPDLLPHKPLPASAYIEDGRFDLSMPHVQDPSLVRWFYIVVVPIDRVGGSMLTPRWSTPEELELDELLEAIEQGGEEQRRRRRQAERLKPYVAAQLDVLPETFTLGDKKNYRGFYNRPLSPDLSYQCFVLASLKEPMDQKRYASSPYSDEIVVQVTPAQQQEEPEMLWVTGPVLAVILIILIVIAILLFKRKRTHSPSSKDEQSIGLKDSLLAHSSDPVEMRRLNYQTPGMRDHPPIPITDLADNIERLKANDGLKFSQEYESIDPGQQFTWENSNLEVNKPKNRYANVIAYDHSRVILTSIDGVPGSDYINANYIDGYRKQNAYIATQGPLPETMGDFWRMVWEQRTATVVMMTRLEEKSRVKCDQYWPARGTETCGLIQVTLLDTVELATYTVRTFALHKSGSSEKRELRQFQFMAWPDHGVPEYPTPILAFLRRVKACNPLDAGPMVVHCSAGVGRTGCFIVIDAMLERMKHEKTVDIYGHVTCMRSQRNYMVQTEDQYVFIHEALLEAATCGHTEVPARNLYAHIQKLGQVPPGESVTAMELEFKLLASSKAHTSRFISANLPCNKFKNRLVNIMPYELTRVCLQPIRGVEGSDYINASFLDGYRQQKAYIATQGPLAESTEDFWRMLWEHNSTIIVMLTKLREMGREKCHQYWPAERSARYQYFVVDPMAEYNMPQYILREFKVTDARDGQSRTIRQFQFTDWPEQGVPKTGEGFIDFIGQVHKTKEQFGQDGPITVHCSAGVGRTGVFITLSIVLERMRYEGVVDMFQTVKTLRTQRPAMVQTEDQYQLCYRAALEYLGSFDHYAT
# UniProt P00567: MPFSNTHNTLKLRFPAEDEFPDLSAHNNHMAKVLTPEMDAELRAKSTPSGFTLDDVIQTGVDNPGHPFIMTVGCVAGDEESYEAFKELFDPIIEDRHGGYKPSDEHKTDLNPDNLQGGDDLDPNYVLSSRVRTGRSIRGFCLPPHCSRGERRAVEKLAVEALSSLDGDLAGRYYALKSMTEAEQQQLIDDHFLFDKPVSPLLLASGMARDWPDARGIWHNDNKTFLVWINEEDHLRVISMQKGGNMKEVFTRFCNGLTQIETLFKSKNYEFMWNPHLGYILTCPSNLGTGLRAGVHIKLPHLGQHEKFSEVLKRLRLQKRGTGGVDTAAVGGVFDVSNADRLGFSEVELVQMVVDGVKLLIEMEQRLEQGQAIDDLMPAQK
# UniProt P23467: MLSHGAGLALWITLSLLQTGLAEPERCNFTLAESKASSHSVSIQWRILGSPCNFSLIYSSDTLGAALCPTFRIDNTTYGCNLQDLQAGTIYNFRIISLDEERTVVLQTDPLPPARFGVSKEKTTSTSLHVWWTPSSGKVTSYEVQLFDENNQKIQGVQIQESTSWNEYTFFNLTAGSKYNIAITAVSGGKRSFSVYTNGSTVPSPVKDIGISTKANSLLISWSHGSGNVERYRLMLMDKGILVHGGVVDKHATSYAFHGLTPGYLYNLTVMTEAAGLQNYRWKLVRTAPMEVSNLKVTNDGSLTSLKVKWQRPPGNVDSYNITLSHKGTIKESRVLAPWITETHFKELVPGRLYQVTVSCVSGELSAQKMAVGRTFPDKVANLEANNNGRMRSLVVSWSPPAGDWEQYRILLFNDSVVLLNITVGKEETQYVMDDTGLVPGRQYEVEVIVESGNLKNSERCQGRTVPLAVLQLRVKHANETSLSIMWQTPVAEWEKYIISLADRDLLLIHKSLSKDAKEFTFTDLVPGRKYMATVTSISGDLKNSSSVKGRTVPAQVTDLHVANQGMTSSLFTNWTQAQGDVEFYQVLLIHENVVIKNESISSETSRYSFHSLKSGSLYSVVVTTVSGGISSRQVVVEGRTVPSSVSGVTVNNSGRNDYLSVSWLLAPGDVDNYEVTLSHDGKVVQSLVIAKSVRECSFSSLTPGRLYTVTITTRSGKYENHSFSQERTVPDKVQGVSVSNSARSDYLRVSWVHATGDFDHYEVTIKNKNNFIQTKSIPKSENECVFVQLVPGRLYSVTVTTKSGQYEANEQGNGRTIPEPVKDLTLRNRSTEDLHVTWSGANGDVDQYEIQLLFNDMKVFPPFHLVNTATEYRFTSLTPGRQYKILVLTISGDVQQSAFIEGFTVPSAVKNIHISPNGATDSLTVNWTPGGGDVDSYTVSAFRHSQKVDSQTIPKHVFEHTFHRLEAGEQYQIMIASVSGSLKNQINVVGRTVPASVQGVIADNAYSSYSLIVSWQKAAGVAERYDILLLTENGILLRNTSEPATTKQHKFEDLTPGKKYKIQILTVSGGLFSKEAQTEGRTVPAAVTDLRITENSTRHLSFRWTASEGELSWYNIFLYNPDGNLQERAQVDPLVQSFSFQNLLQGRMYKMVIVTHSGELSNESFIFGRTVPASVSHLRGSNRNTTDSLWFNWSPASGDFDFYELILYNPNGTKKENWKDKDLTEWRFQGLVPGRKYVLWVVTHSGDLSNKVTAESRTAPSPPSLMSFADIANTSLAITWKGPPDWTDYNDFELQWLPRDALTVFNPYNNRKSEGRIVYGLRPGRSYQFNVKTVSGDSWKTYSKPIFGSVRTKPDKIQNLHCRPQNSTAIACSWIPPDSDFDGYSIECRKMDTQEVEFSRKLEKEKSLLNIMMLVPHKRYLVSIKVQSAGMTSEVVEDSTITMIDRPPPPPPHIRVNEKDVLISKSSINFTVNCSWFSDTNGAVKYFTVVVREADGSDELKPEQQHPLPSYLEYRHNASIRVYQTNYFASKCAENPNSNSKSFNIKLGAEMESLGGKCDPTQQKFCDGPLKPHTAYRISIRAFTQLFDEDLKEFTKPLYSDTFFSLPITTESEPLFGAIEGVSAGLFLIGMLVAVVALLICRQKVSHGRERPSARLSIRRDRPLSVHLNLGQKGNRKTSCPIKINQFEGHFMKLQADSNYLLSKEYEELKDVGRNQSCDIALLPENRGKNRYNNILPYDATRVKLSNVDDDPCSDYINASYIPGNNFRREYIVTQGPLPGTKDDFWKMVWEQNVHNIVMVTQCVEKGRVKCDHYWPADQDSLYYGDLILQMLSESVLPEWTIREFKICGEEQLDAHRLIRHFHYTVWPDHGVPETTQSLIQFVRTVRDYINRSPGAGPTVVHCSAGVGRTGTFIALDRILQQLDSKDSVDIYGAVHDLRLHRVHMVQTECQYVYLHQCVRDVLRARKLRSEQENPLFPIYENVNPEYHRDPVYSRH
# UniProt P28827, whole entry, looked up: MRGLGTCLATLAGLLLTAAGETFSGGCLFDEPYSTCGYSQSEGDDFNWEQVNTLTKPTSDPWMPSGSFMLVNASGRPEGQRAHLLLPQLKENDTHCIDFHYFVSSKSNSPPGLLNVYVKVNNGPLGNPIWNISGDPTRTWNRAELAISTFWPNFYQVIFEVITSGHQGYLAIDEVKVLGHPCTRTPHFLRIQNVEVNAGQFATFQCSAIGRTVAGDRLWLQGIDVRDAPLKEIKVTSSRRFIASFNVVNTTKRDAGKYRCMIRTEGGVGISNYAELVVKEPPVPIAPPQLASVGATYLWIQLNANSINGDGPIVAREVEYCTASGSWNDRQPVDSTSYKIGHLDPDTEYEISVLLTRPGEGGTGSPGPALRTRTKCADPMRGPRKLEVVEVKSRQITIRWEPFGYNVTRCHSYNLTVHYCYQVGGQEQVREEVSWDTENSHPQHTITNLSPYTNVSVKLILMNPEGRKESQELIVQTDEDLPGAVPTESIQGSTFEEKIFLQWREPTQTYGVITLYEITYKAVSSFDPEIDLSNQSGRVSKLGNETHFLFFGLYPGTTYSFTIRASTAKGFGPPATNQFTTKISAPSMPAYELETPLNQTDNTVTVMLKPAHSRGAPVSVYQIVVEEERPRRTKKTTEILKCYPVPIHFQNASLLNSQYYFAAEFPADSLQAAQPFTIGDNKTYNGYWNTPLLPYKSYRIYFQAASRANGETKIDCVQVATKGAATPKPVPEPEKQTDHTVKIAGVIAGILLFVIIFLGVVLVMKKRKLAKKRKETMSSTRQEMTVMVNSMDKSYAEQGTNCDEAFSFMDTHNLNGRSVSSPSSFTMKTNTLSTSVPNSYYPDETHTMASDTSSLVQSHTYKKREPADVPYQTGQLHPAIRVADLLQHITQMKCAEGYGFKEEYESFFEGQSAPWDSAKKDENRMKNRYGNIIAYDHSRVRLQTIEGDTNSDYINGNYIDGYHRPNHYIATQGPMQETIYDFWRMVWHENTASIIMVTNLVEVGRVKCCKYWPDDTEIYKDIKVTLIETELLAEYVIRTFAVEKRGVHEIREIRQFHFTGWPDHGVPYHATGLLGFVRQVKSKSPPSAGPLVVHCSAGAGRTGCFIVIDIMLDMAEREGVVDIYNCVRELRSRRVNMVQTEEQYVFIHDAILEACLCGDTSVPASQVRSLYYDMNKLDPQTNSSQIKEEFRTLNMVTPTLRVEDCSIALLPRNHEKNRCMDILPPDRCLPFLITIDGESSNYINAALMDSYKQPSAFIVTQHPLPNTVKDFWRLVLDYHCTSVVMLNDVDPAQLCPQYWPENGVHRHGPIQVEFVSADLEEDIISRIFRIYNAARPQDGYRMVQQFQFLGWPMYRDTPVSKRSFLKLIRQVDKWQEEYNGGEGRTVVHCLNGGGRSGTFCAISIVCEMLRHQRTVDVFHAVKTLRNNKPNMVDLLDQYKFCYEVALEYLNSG
# Values joined by “and” are separate entries in the source; they are usually repeats but may differ in a detail not shown here. Equal entries are not always repeated. This list was built around the results that the source calls inconclusive (neither active nor inactive); the mix of calls is not that of the screen. For some assays here: Potencies of inconclusive entries are doubtful fits and often do not repeat. Active and inactive are the calls of the source. The calls were made as follows: active = hit-call score of the fitted dose curve at least 0.9, where 1 is the maximum; inconclusive = response in the unintended direction; inactive = score below 0.9.
# Assays:
# [1] = molecular target: human Rho Associated Coiled-coil Containing Protein Kinase 1 (ROCK1), ROCK1 (gene 6093) (UniProt Q13464); test: NVS_ENZ_hROCK1: NovaScreen (NVS) Enzymatic Assay for human Rho Associated Coiled-coil Containing Protein Kinase 1 (ROCK1) (AID 2283214)
# Outline: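 Compounds first run in duplicate at 25 uM against recombinant human ROCK1, then followed in concentration series. Kinase activity was read 1 h post-dosing by fluorescence with mobility-shift separation, as signal loss relative to DMSO.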
# [2] = molecular target: human Raf-1 Proto-Oncogene, serine/threonine Kinase (RAF1), RAF1 (gene 5894) (UniProt P04049); test: NVS_ENZ_hRAF1: NovaScreen (NVS) Enzymatic Assay for human Raf-1 Proto-Oncogene, serine/threonine Kinase (RAF1) (AID 2283216)
# Outline: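 Single-point screening at 25 uM (duplicate), followed by singleton concentration-response to 50 uM maximum for chemicals exceeding threshold. Enzyme activity from fluorescent substrate-product mobility-shift separation after 1 h, relative to DMSO.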
# [3] = molecular target: human Vascular Endothelial Growth Factor Receptor 2 (VEGFR2), KDR (gene 3791) (UniProt P35968); test: NVS_ENZ_hVEGFR2: NovaScreen (NVS) Enzymatic Assay for human Vascular Endothelial Growth Factor Receptor 2 (VEGFR2) (AID 2283230)
# Outline: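 Cell-free recombinant VEGFR2 kinase, fluorescent substrate with electrophoretic mobility-shift separation; read 1 h after dosing. Screened at 25 uM in duplicate, hits to concentration-response up to 50 uM; loss-of-signal versus DMSO.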
# [4] = molecular target: human Protein Tyrosine Phosphatase Receptor Type F (PTPRF), PTPRF (gene 5792) (UniProt P10586); test: NVS_ENZ_hPTPRF: NovaScreen (NVS) Enzymatic Assay for human Protein Tyrosine Phosphatase Receptor Type F (PTPRF) (AID 2283213)
# Outline: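 Cell-free fluorescence enzyme assay with recombinant protein and substrate; product separated by electrophoretic mobility shift. Read 1 h after dosing, single 25 uM duplicate screen, then concentration-response up to 50 uM; loss of signal vs DMSO.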
# [5] = molecular target: human SRC Proto-Oncogene, Non-receptor Tyrosine Kinase (SRC), SRC (gene 6714) (UniProt P12931); test: NVS_ENZ_hSRC: NovaScreen (NVS) Enzymatic Assay for human SRC Proto-Oncogene, Non-receptor Tyrosine Kinase (SRC) (AID 2283223)
# Outline: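 Compounds passing 30% inhibition at 25 uM (duplicate) were titrated to a top concentration of 50 uM. Enzyme activity read by fluorescence with mobility-shift substrate/product separation after 1 h; DMSO baseline.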
# [6] = molecular target: human Tyrosine Protein Kinase Receptor Tie-2 (Tie2), TEK (gene 7010) (UniProt Q02763); test: NVS_ENZ_hTie2: NovaScreen (NVS) Enzymatic Assay for human Tyrosine Protein Kinase Receptor Tie-2 (Tie2) (AID 2283225)
# Outline: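 Substrate and product were separated by mobility shift and detected by fluorescence after a 1-hour reaction with recombinant Tie2. Chemicals passing a 25 uM single-point screen were titrated to a maximum of 50 uM. Results were normalized to DMSO baseline.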
# [7] = molecular target: human Vascular Endothelial Growth Factor Receptor 1 (VEGFR1), FLT1 (gene 2321) (UniProt P17948); test: NVS_ENZ_hVEGFR1: NovaScreen (NVS) Enzymatic Assay for human Vascular Endothelial Growth Factor Receptor 1 (VEGFR1) (AID 2283226)
# Outline: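 Kinase activity of recombinant human VEGFR1 was read by fluorescence after electrophoretic separation of product from substrate, 1 h post-dosing; initial duplicate single-point testing at 25 uM, followed by concentration-series follow-up, with DMSO as baseline.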
# [8] = molecular target: rabbit Imidazoline 2 Central (I2C), CKB (gene 100009085) (UniProt P00567); test: NVS_ENZ_rabI2C: NovaScreen (NVS) Enzymatic Assay for rabbit Imidazoline 2 Central (I2C) (AID 2283228)
# Outline: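 Rabbit brain membranes, cell-free; readout by filter-based scintillation counting 1.5 hours after dosing, loss of signal vs DMSO. Initial duplicate test at 25 uM, then concentration-response with 50 uM top concentration.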
# [9] = molecular target: human Vascular Endothelial Growth Factor Receptor 3 (VEGFR3), FLT4 (gene 2324) (UniProt P35916); test: NVS_ENZ_hVEGFR3: NovaScreen (NVS) Enzymatic Assay for human Vascular Endothelial Growth Factor Receptor 3 (VEGFR3) (AID 2283229)
# Outline: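 Chemicals first run in duplicate at 25 uM, with actives re-tested in concentration series to a top of 50 uM. Recombinant VEGFR3 activity measured after 1 h via fluorescence with mobility-shift product separation; inhibition fitted relative to DMSO.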
# [10] = molecular target: human Protein Tyrosine Phosphatase Receptor Type B (PTPRB), PTPRB (gene 5787) (UniProt P23467); test: NVS_ENZ_hPTPRB: NovaScreen (NVS) Enzymatic Assay for human Protein Tyrosine Phosphatase Receptor Type B (PTPRB) (AID 2283211)
# Outline: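 Recombinant human PTPRB with a fluorescent substrate, product separated by electrophoretic mobility shift; read 1 h after dosing. Primary screen in duplicate at 25 uM; actives then retested in concentration series; loss of signal versus DMSO.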
# [11] = molecular target: human Protein Tyrosine Phosphatase Receptor Type M (PTPRM), PTPRM (gene 5797) (UniProt P28827); test: NVS_ENZ_hPTPRM: NovaScreen (NVS) Enzymatic Assay for human Protein Tyrosine Phosphatase Receptor Type M (PTPRM) (AID 2283215)
# Outline: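 Read-out is fluorescence after electrophoretic separation of substrate and product, taken 1.33 h post-dosing with recombinant enzyme. Compounds screened at 25 uM in duplicate, then concentration series for actives; activity as signal loss relative to DMSO.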
compound,measurement,setting,value
O=C(N[C@H]1CN2CCC1CC2)c1ccc2c(c1)OCCO2,AC50,[1],inconclusive: 25 µM
CC(C)COC(=O)c1ccccc1C(=O)OCC(C)C,AC50,[1],inconclusive: 25 µM
N#Cc1cccnc1,AC50,[2],inconclusive: 25 µM
CCNS(=O)(=O)C(F)(F)C(F)(F)C(F)(F)C(F)(F)C(F)(F)C(F)(F)C(F)(F)C(F)(F)F,AC50,[2],inconclusive: 24.1 µM
CCCN(CCC)c1c([N+](=O)[O-])cc(S(N)(=O)=O)cc1[N+](=O)[O-],AC50,[3],inconclusive: 0.798 µM
CC(C)(C)OOC(C)(C)C,AC50,[3],inconclusive: 0.333 µM
CN1CSC(=S)N(C)C1,AC50,[4],active: 10.1 µM
ClC1(Cl)C2(Cl)C3(Cl)C4(Cl)C(Cl)(Cl)C5(Cl)C3(Cl)C1(Cl)C5(Cl)C24Cl (stereo not drawn),outcome,[5],inactive
COc1nn(C(=O)NS(=O)(=O)c2ccccc2OC(F)(F)F)c(=O)n1C,AC50,[6],active: 24.5 µM
N#CCCCCC#N,AC50,[6],inconclusive: 10.5 µM
same,AC50,[3],inconclusive: 0.116 µM
COc1cnc(OC)n2nc(NS(=O)(=O)c3c(OCC(F)F)cccc3C(F)(F)F)nc12,outcome,[7],inactive
Oc1cc(Cl)ccc1Oc1ccc(Cl)cc1Cl,AC50,[7],inconclusive: 25.5 µM
C=CCC1=C(C)C(OC(=O)C2C(C=C(C)C)C2(C)C)CC1=O (stereo not drawn),AC50,[8],inconclusive: 26.2 µM
COc1cc(-c2ccc(N)c(OC)c2)ccc1N,AC50,[8],active: 10.4 µM and active: 18.1 µM
O=C1c2ccccc2C(=O)C1C(=O)C(c1ccccc1)c1ccc(Cl)cc1 (stereo not drawn),AC50,[9],active: 2.4 µM
ClC(Cl)=C(c1ccc(Cl)cc1)c1ccc(Cl)cc1,AC50,[3],inconclusive: 25 µM
Clc1nc(Cl)nc(Nc2ccccc2Cl)n1,AC50,[10],inconclusive: 5.19 µM
CC[C@H](C)[C@H]1O[C@]2(C=C[C@@H]1C)C[C@@H]1C[C@@H](C/C=C(\C)[C@@H](O[C@H]3C[C@H](OC)[C@@H](O[C@H]4C[C@H](OC)[C@@H](NC)[C@H](C)O4)[C@H](C)O3)[C@@H](C)/C=C/C=C3\CO[C@@H]4[C@H](O)C(C)=C[C@@H](C(=O)O1)[C@]34O)O2,AC50,[11],active: 9.67 µM
CO/C=C(/C(=O)OC)c1ccccc1Oc1cc(Oc2ccccc2C#N)ncn1,AC50,[11],inconclusive: 26.4 µM
CS(=O)(=O)c1ccc(C(=O)C2C(=O)CCCC2=O)c([N+](=O)[O-])c1,outcome,[9],inactive
O=[N+]([O-])/N=C1\NCCN1Cc1ccc(Cl)nc1,AC50,[8],active: 11.4 µM
CCCCN(CCCC)SN(C)C(=O)Oc1cccc2c1OC(C)(C)C2,AC50,[8],inconclusive: 0.173 µM

# Reprinted at random: two records from the list.
compound,measurement,setting,value
COc1nn(C(=O)NS(=O)(=O)c2ccccc2OC(F)(F)F)c(=O)n1C,AC50,[6],active: 24.5 µM
O=C(N[C@H]1CN2CCC1CC2)c1ccc2c(c1)OCCO2,AC50,[1],inconclusive: 25 µM
